Measurements: paper PMC6753678, “Fueling Open Innovation for Malaria Transmission-Blocking Drugs: Hundreds of Molecules Targeting Early Parasite Mosquito Stages” (Frontiers in Microbiology, 2019)

Tested on: P. berghei ookinete development
[1] = unified cytotox / IC50, <10-fold red, >10-fold green

SMILES: COCCN(C)c1ccc(C(=O)Nc2ccccc2)cc1NS(=O)(=O)Cc1ccccc1.O=C(O)C(F)(F)F [TCMDC-134575]
- Assay tox ratio Pb ODA: 71.41

SMILES: COc1ccc2ncc(C)c(CCN3CCC(NCc4ccc5c(n4)NC(=O)CS5)CC3)c2c1.Cl [TCMDC-134648]
- Assay tox ratio Pb ODA [1]: 13.59

SMILES: COc1ccc2ncc(Cl)c(NCC3(O)CCC(NCc4ccc5c(n4)NC(=O)CS5)CC3)c2n1.Cl (stereo not shown) [TCMDC-134671]
- Assay tox ratio Pb ODA [1]: 15.49

SMILES: COc1ccc2nccc([C@@H](O)CN3C4CCC3CC(NCc3ccc5c(n3)NC(=O)CS5)C4)c2n1.Cl (stereo partly shown) [TCMDC-134697]
- Assay tox ratio Pb ODA [1]: 9.73

SMILES: COc1cc(OC)cc(-c2nn(-c3ccc([N+](=O)[O-])cc3C#N)c(=S)n2Cc2ccco2)c1 [TCMDC-134715]
- Assay tox ratio Pb ODA: 62.39

SMILES: COCCn1c(-c2cccc(Cl)c2)nn(-c2ccc([N+](=O)[O-])cc2C#N)c1=S [TCMDC-134719]
- Assay tox ratio Pb ODA [1]: 54.21

SMILES: N#Cc1cc([N+](=O)[O-])ccc1-n1nc(C(N)=O)n(Cc2cccc(F)c2)c1=S [TCMDC-134721]
- Assay tox ratio Pb ODA: 30.88

SMILES: Cc1[nH]c(C)c(-c2ccc(-c3ccc(OC(F)(F)F)cc3)cc2)c(=O)c1Br [TCMDC-134726]
- Assay tox ratio Pb ODA (red: <10-fold selectivity; green: >10-fold): 301.46

SMILES: Cc1[nH]c(C)c(-c2ccc(Oc3ccc(F)cc3)cc2)c(=O)c1Cl [TCMDC-134728]
- Assay tox ratio Pb ODA [1]: 1151.75

SMILES: C/C=C/COc1ccc(-c2c(C)[nH]c(C)c(Cl)c2=O)cc1 [TCMDC-134729]
- Assay tox ratio Pb ODA [1]: 213.23

SMILES: Cc1cccc(Nc2nc(N[C@@H]3CCCNC3)nc3cc[nH]c(=O)c23)c1.O=C(O)C(F)(F)F [TCMDC-134835]
- Assay tox ratio Pb ODA [1]: 4.40

SMILES: COc1ccc2nccc([C@@H](O)CN3CCC(NC(=O)c4cc5c(F)cc(F)cc5[nH]4)CC3)c2n1 [TCMDC-134945]
- Assay tox ratio Pb ODA (red: <10-fold selectivity; green: >10-fold): 25.22

SMILES: Cc1cccc(Nc2nc(NCCCCN)nc3cc[nH]c(=O)c23)c1.O=C(O)C(F)(F)F [TCMDC-134946]
- Assay tox ratio Pb ODA: 9.44

SMILES: CC1CN(Cc2cccc(C#N)c2)CCN1c1ccc(NC(=O)c2cccs2)cc1.O=C(O)C(F)(F)F (stereo not shown) [TCMDC-134969]
- Assay tox ratio Pb ODA (red: <10-fold selectivity; green: >10-fold): 1.84

SMILES: CCC(C)CN1CCN(c2ccc(NC(=O)c3cccs3)cc2)C(C)C1.O=C(O)C(F)(F)F (stereo not shown) [TCMDC-134996]
- Assay tox ratio Pb ODA (red: <10-fold selectivity; green: >10-fold): 57.41

SMILES: CC1CN(Cc2ccccc2)CCN1c1ccc(NC(=O)c2cccs2)cc1.O=C(O)C(F)(F)F (stereo not shown) [TCMDC-135005]
- Assay tox ratio Pb ODA (red: <10-fold selectivity; green: >10-fold): 78.57

SMILES: CC1CN(Cc2cccc(F)c2)CCN1c1ccc(NC(=O)c2cccs2)cc1.O=C(O)C(F)(F)F (stereo not shown) [TCMDC-135009]
- Assay tox ratio Pb ODA (red: <10-fold selectivity; green: >10-fold): 285.98

SMILES: O=C(Nc1ccc(N2CCCN(Cc3cccc(F)c3)CC2)cc1)c1cccs1.O=C(O)C(F)(F)F [TCMDC-135012]
- Assay tox ratio Pb ODA (red: <10-fold selectivity; green: >10-fold): 41.41

SMILES: CN(Cc1cccc(F)c1)C1CCN(c2cc(NC(=O)c3ccc(F)cc3)ccn2)CC1.O=C(O)C(F)(F)F [TCMDC-135018]
- Assay tox ratio Pb ODA: 0.0228

SMILES: O=C(O)C(F)(F)F.O=c1[nH]ccc2nc(N[C@@H]3CCCNC3)nc(Nc3ccc(S(=O)(=O)N4CCOCC4)cc3)c12 [TCMDC-135038]
- Assay tox ratio Pb ODA: 29.58

SMILES: C=CCOc1ccc(-c2c(C)[nH]c(C)c(Br)c2=O)cc1 [TCMDC-135042]
- Assay tox ratio Pb ODA (red: <10-fold selectivity; green: >10-fold): 10.12

SMILES: COCCn1c(-c2cccc(Cl)c2)nn(-c2ccc([N+](=O)[O-])cc2Cl)c1=S [TCMDC-135130]
- Assay tox ratio Pb ODA: 62.50

SMILES: COc1ccc2ncc(C#N)c(CCN3C4CCC3CC(NCc3ccc5c(n3)NC(=O)CS5)C4)c2c1.Cl (stereo not shown) [TCMDC-135180]
- Assay tox ratio Pb ODA [1]: 2.10

SMILES: C#C[C@H]1O[C@@H](n2cnc3c(Nc4cc(Br)cc(C(F)(F)F)c4)ncnc32)[C@H](O)[C@@H]1O [TCMDC-135185]
- Assay tox ratio Pb ODA: 108.01

SMILES: COc1ccc2ncc(C#N)c(CCN3CCC(NCc4ccc5c(n4)NC(=O)CS5)CC3)c2n1.Cl [TCMDC-135188]
- Assay tox ratio Pb ODA [1]: 71.52

SMILES: Cc1occc1C(=O)Nc1nc(-c2ccccn2)nc2ccsc12 [TCMDC-135244]
- Assay tox ratio Pb ODA: 0.65

SMILES: COc1c(C)[nH]c(C)c(-c2ccc(Oc3cccc(C(F)(F)F)c3)cc2)c1=O [TCMDC-135253]
- Assay tox ratio Pb ODA (red: <10-fold selectivity; green: >10-fold): 0.36

SMILES: Cc1[nH]c(C)c(-c2ccc(OCc3ccc(OC(F)(F)F)cc3)nc2)c(=O)c1Br [TCMDC-135254]
- Assay tox ratio Pb ODA [1]: 51.72

SMILES: Cc1[nH]c(C)c(-c2ccc(OCc3ccc(OC(F)(F)F)cc3)nc2)c(=O)c1Cl [TCMDC-135271]
- Assay tox ratio Pb ODA [1]: 93.65

SMILES: CCNC(=O)Nc1ccc(-c2cnc(N)c(-c3nc4ccc(OC)cc4[nH]3)c2)cc1 [TCMDC-135321]
- Assay tox ratio Pb ODA: 2.87

SMILES: COc1ccc2nc(-c3cc(-c4ccc(NC(=O)C(C)C)cc4)cnc3N)[nH]c2c1 [TCMDC-135322]
- Assay tox ratio Pb ODA: 20.38

SMILES: COc1ccc2nc(-c3cc(-c4ccc(NC(C)=O)cc4)cnc3N)[nH]c2c1 [TCMDC-135365]
- Assay tox ratio Pb ODA: 27.20

SMILES: COc1cc(F)c2ncc(C#N)c(CCN3CCC(NCc4ccc5c(c4)OCCO5)CC3)c2c1.Cl [TCMDC-135367]
- Assay tox ratio Pb ODA: 17.90

SMILES: Cc1cc(SC(C)(C)C)cc2c(Cl)c(C(N)=O)cnc12 [TCMDC-135415]
- Assay tox ratio Pb ODA: 0.50

SMILES: Cc1[nH]c2ccc(-c3ccccc3)cc2c(=O)c1Br [TCMDC-135426]
- Assay tox ratio Pb ODA: 79.75

SMILES: C=Cc1ccc(-c2c(C)[nH]c(C)c(Br)c2=O)cc1 [TCMDC-135433]
- Assay tox ratio Pb ODA (red: <10-fold selectivity; green: >10-fold): 46.48

SMILES: Cc1[nH]c(C)c(-c2ccc(CCc3ccc(F)cc3F)cc2)c(=O)c1Cl [TCMDC-135462]
- Assay tox ratio Pb ODA [1]: 9523.81

SMILES: CCCCc1ccc(-c2ccc3[nH]c(C)c(Br)c(=O)c3c2)cc1 [TCMDC-135463]
- Assay tox ratio Pb ODA: 3.34

SMILES: COc1ccc2ncc(F)c(CCN3CCC(NCc4ccc5c(c4)CCO5)CC3)c2n1.Cl [TCMDC-135491]
- Assay tox ratio Pb ODA (red: <10-fold selectivity; green: >10-fold): 9.33

SMILES: O=C(NCC1CC1)C1CCN(C(c2ccc(Cl)cc2)c2ccc(Cl)cc2)CC1 [TCMDC-135522]
- Assay tox ratio Pb ODA: 62.90

SMILES: Cc1[nH]c(C)c(-c2ccc(Nc3ccc(C(F)(F)F)cn3)cc2)c(=O)c1Br [TCMDC-135546]
- Assay tox ratio Pb ODA (red: <10-fold selectivity; green: >10-fold): 179.31

SMILES: COc1cc(F)c2ncc(Cl)c(CCN3CCC(NCc4ccc5c(c4)NC(=O)CS5)CC3)c2c1.Cl [TCMDC-135620]
- Assay tox ratio Pb ODA: 22.68

SMILES: COc1cc(F)c2ncc(Cl)c(CCN3CCC(NCc4ccc5c(n4)NC(=O)CO5)CC3)c2c1.Cl [TCMDC-135621]
- Assay tox ratio Pb ODA (red: <10-fold selectivity; green: >10-fold): 21.43

SMILES: COc1cc(F)c2ncc(Cl)c(CCN3CCC(NCc4ccc5c(c4)NC(=O)CO5)CC3)c2c1.Cl [TCMDC-135623]
- Assay tox ratio Pb ODA (red: <10-fold selectivity; green: >10-fold): 22.73

SMILES: COc1ccc2ncc(F)c(CCN3C4CCC3CC(NCc3ccc5c(c3)OCCO5)C4)c2n1.Cl (stereo not shown) [TCMDC-135638]
- Assay tox ratio Pb ODA (red: <10-fold selectivity; green: >10-fold): 9.39

SMILES: COc1ccc2ncc(C#N)c(CCN3CCC(NCc4ccc5c(c4)NC(=O)CO5)CC3)c2c1.Cl [TCMDC-135645]
- Assay tox ratio Pb ODA (red: <10-fold selectivity; green: >10-fold): 85.12

SMILES: COc1ccc(CCc2ccc(-c3c(C)[nH]c(C)c(Cl)c3=O)cc2)cc1 [TCMDC-135654]
- Assay tox ratio Pb ODA [1]: 697.59

SMILES: COc1ccc(C#Cc2ccc(-c3c(C)[nH]c(C)c(Cl)c3=O)cc2)cc1 [TCMDC-135655]
- Assay tox ratio Pb ODA [1]: 86.26

SMILES: Cc1[nH]c(C)c(-c2ccc(OCc3cccc(C(F)(F)F)c3)nc2)c(=O)c1Br [TCMDC-135656]
- Assay tox ratio Pb ODA [1]: 80.90

SMILES: Cc1[nH]c(C)c(-c2ccc(OCc3ccc(F)cc3)nc2)c(=O)c1Br [TCMDC-135657]
- Assay tox ratio Pb ODA [1]: 167.43

SMILES: Cc1[nH]c(C)c(-c2ccc(OCc3cc(F)cc(F)c3)nc2)c(=O)c1Cl [TCMDC-135676]
- Assay tox ratio Pb ODA [1]: 3.79

SMILES: Cc1[nH]c(C)c(-c2ccc(-c3ccc(OC(F)(F)F)cc3)nc2)c(=O)c1Cl [TCMDC-135677]
- Assay tox ratio Pb ODA [1]: 89.34

SMILES: Cc1[nH]c(C)c(-c2ccc(CCc3ccc(N)cc3)cc2)c(=O)c1Cl [TCMDC-135678]
- Assay tox ratio Pb ODA [1]: 91.51

SMILES: Cc1[nH]c(C)c(-c2ccc(OCc3cc(F)cc(F)c3)nc2)c(=O)c1Br [TCMDC-135683]
- Assay tox ratio Pb ODA [1]: 62.13

SMILES: COc1nc2c(CCN3CCC(NCc4ccc5c(n4)NC(=O)CO5)CC3)c(Cl)cnc2cc1F.Cl [TCMDC-135766]
- Assay tox ratio Pb ODA (red: <10-fold selectivity; green: >10-fold): 11.46

SMILES: COc1nc2c(CCN3CCC(NCc4ccc5c(c4)NCCO5)CC3)c(Cl)cnc2cc1F.Cl [TCMDC-135768]
- Assay tox ratio Pb ODA (red: <10-fold selectivity; green: >10-fold): 4.09

SMILES: Cc1[nH]c(C)c(-c2ccc(/C=C/c3ccccn3)cc2)c(=O)c1Cl [TCMDC-135787]
- Assay tox ratio Pb ODA [1]: 95.28

SMILES: COc1ccc(CCc2ccc(-c3c(C)[nH]c(C)c(Cl)c3=O)cc2)cc1OC [TCMDC-135789]
- Assay tox ratio Pb ODA [1]: 360.43

SMILES: Cc1[nH]c(C)c(-c2ccc(OCCCc3ccccn3)cc2)c(=O)c1Br.Cl [TCMDC-135795]
- Assay tox ratio Pb ODA (red: <10-fold selectivity; green: >10-fold): 0.29

SMILES: Cc1[nH]c(C)c(-c2ccc(OCc3ccccc3C(F)(F)F)nc2)c(=O)c1Br [TCMDC-135796]
- Assay tox ratio Pb ODA [1]: 71.73

SMILES: COc1nc2c(CCN3CC[C@H](NCc4ccc5c(c4)NC(=O)CO5)[C@H](O)C3)c(Cl)cnc2cc1F.Cl [TCMDC-135805]
- Assay tox ratio Pb ODA (red: <10-fold selectivity; green: >10-fold): 15.62

SMILES: Cc1[nH]c(C)c(-c2ccc(OCc3cc(C(F)(F)F)cc(C(F)(F)F)c3)nc2)c(=O)c1Cl [TCMDC-135814]
- Assay tox ratio Pb ODA [1]: 10.31

SMILES: Cc1[nH]c(C)c(-c2ccc(OCc3cc(C(F)(F)F)cc(C(F)(F)F)c3)nc2)c(=O)c1Br [TCMDC-135815]
- Assay tox ratio Pb ODA [1]: 5.80

SMILES: CCCCCCCc1ccc(-c2c(C)[nH]c(C)c(Cl)c2=O)cn1 [TCMDC-135816]
- Assay tox ratio Pb ODA [1]: 53.19

SMILES: Cc1[nH]c(C)c(-c2ccc(-c3ccccc3C(F)(F)F)nc2)c(=O)c1Br [TCMDC-135881]
- Assay tox ratio Pb ODA [1]: 102.81

SMILES: COc1ccc2ncc(F)c(CCN3CCC(NC(=O)c4ccc5c(n4)NC(=O)CS5)C(O)C3)c2n1 (stereo not shown) [TCMDC-135907]
- Assay tox ratio Pb ODA [1]: 110.69

SMILES: Cc1[nH]c(C)c(-c2ccc(-c3cccc(C(F)(F)F)c3)nc2)c(=O)c1Br [TCMDC-135911]
- Assay tox ratio Pb ODA [1]: 249.89

SMILES: Cc1[nH]c(C)c(-c2ccc(-c3ccc(F)cc3)nc2)c(=O)c1Br [TCMDC-135925]
- Assay tox ratio Pb ODA [1]: 61.09

SMILES: Cc1[nH]c(C)c(-c2ccc(-c3ccccc3F)nc2)c(=O)c1Br [TCMDC-135926]
- Assay tox ratio Pb ODA [1]: 216.88

SMILES: Cc1[nH]c(C)c(-c2ccc(-c3ccccc3F)nc2)c(=O)c1Cl [TCMDC-135927]
- Assay tox ratio Pb ODA [1]: 231.48

Where two headings read alike, the source gives them in different places.
